Results as given in patent publication US20260167927A1, “GLOMUS CELL-LIKE CELLS AND PRODUCTION METHOD THEREOF” (NATIONAL INSTITUTE OF ADVANCED INDUSTRIAL SCIENCE AND …, priority 2022, published 2026).
At least one compound was matched to its structure with a doubt left.

Assays:
glomus cell-like cells = experiment: ATP production by glomus cell-like cells in response to hypoxic stimulation with ion channel inhibitors; format: cell-based, human; details: nifedipine 5 μM in KRB, 2% O2, 10 to 30 minutes, vs KRB without inhibitor
Procedure: Glomus cell-like cells on days 16 to 19 of induction were used. With Krebs-Ringer buffer (KRB: 120 mM of NaCl, 5 mM of KCI, 25 mM of NaHCO3, 2.5 mM of CaCI2, 1.1 mM of MgCl2, 0.1% bovine serum albumin, 2.8 mM of glucose, pH 7.2), glomus cell-like cells were washed twice. After adding KRB, the cells were incubated in a hypoxic CO2 incubator (2% O2) for 10 to 30 minutes. The supernatant was collected, and then ATP was measured using the ATP Determination Kit (Thermo Fisher Scientific: A22066). Cells were lysed in RIPA buffer (FUJIFILM Wako Pure Chemical Corporation: 182-02451), and the total protein content was determined using a Pierce™ BCA Protein Assay Kit (Thermo Fisher Scientific: 23225). ATP measurement results were corrected according to the total protein content.
Using KRB containing the K^+ channel inhibitor tetraethylammonium chloride (FUJIFILM Wako Pure Chemical Corporation: 206-04501) (final concentration: 5 mM), the Ca^2+ channel inhibitor nifedipine (FUJIFILM Wako Pure Chemical Corporation: 141-05783) (final concentration: 5 μM), or the Na^+ channel inhibitor lidocaine (FUJIFILM Wako Pure Chemical Corporation: 120-02691) (final concentration: 1 μM), cells were subjected to hypoxic stimulation using the procedure described in (3-1) above, and the amount of ATP production was analyzed. […]

rat glomus cells = details: Buttigieg J. and Nurse CA., 2004; cited from earlier work
[1] = test system: glomus cell-like cell spheres; experiment: Screening of 87 commercial compounds for regulation of glomus cell activity (ATP production); format: cell-based, human; details: spheres days 16 to 19 of induction, 4 to 5 spheres/well, control KRB containing DMSO; data not shown

COC(=O)C1=C(C)NC(C)=C(C(=O)OC)C1c1ccccc1[N+](=O)[O-] [nifedipine, Nifedipine]
effect on ATP production in response to hypoxic stimulation (glomus cell-like cells): inhibitory effect | hypoxic response of rat glomus cells (rat glomus cells): suppress the hypoxic response | ATP production compared to the control [1]: decreased ATP production
